From patent publication US20090010873A1, “Methods of Cell Therapy, Neurogenesis and Oligodendrogenesis” (YEDA RESEARCH AND DEVELOPMENT CO. LTD., priority 2004, published 2009)
At least one compound was matched to its structure with a doubt left.

Tested on: TMBP-transgenic mice
Experiment: Minocycline in TMBP-transgenic mice: dentate gyrus neurogenesis
Type: in vivo, mouse
Conditions: daily i.p. for 14 days (50 then 25 mg/kg), vs PBS

CN(C)c1ccc(O)c2c1C[C@H]1C[C@H]3[C@H](N(C)C)C(O)=C(C(N)=O)C(=O)[C@@]3(O)C(O)=C1C2=O [minocycline]
number of BrdU+/DCX+ cells in the dentate gyrus: significant decrease
